Measurements taken from PubChem BioAssay AID445 (National Center for Advancing Translational Sciences (NCATS), 2006).
The other results are listed elsewhere or left out. Further columns of the screen follow, without active or inactive calls. The list favours compounds with an active or inconclusive main result. The note in brackets gives the kind of curve behind each potency; many fits are weak.

Test: IkB Signaling
Conditions: ABC-DLBCL IkBa-CBG/CBR dual luciferase ratio (green luciferase fused to IkBa over red control in OCI-Ly3 lymphoma cells), 4 h
Procedure, shortened: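 Curves were fitted separately to fusion (green), unfused (red) and ratio luminescence, then classed by r2, magnitude and activity. Cells: OCI-Ly3, 4 h compound plus doxycycline at 37C; 10 uM MG-132 defined full response.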

[1] = measured here: control luc red channel unless noted
[2] = measured here: IkB-luc green channel
[3] = measured here: control luc red channel

CC1(C)O[C@@H]2C[C@H]3[C@H]4C[C@H](F)C5=CC(=O)CC[C@]5(C)[C@@H]4[C@H](O)C[C@]3(C)[C@]2(C(=O)CO)O1
AC50 [1]: 2.51 nM [rising, full curve, poor fit] [measured here: IkB-luc green channel]

COc1ccc(CCNC(=O)C2CC(=O)N(CCc3ccccc3)C2)cc1OC (configuration not stated)
AC50 [1]: 7.94 µM [rising, single point]

CCCOc1ccc(C2c3c(oc4ccccc4c3=O)C(=O)N2c2ccc(C)cn2)cc1OCC (configuration not stated)
AC50 [1]: 0.158 µM [rising, full curve]

CCOC(=O)c1ccc(CN(Cc2ccc(F)cc2)S(=O)(=O)c2ccc(F)cc2)cc1
AC50 [1]: 1.58 µM [falling, partial curve]

O=C(Nc1ccc(C(F)(F)F)cc1)c1cc(S(=O)(=O)NC2CCCCCC2)ccc1F
AC50 [1]: 20 µM [falling, partial curve]

Cc1ccc(C)c(NC(=O)Nc2nnc(N(CC(C)C)CC(C)C)s2)c1
AC50 [1]: 25.1 µM [falling, single point]

CCOc1cccc2sc(NC(=O)c3ccc(S(=O)(=O)N4CCCc5ccccc54)cc3)nc12
AC50 [1]: 3.16 µM [falling, full curve]

Cc1ccccc1S(=O)Cc1ccc(C(=O)NC2CCCCCC2)o1 (configuration not stated)
AC50 [1]: 12.6 µM [falling, partial curve]

O=C(CNS(=O)(=O)c1cccs1)N1CCN(c2ccccc2Cl)CC1
AC50 [1]: 3.98 µM [rising, partial curve]

O=C(Cn1cc(SCc2cccc(F)c2)c2ccccc21)N1CCCC1
AC50 [1]: 25.1 µM [falling, single point]

Cc1ccc2c(CNCc3cccc(Cl)c3)c(C(=O)O)n(Cc3ccc(F)cc3Cl)c2c1
AC50 [1]: 39.8 µM [falling, single point]

COc1ccc(CCNc2oc(COc3ccc(Br)cc3)nc2C#N)cc1OC
AC50 [2]: 10 µM [falling, partial curve]
AC50 [3]: 7.94 µM [falling, full curve]

COc1cc(OC)c(NS(=O)(=O)c2cc3c(cc2C)NC(=O)CO3)cc1Cl
AC50 [1]: 31.6 µM [falling, single point]

O=C(Nc1nc2c(s1)CCCC2)c1ccc2ncsc2c1
AC50 [1]: 7.94 µM [falling, partial curve]

CC(=O)c1ccc(N2CCN(C(=O)C3CCN(S(=O)(=O)c4ccc(Br)s4)CC3)CC2)cc1
AC50 [1]: 12.6 µM [falling, partial curve]

Cc1ccc(NC(=O)c2nc(S(C)(=O)=O)ncc2N(Cc2ccco2)Cc2ccccc2F)c(C)c1
AC50 [1]: 15.8 µM [falling, single point]

CCN(Cc1ccccc1)C(=O)CCS(=O)(=O)c1cc2c(cc1Cl)NC(=O)CO2
AC50 [1]: 1 µM [falling, partial curve, poor fit]

O=C(Nc1ccccc1)Nc1ccccc1C(=O)NCc1ccco1
AC50 [1]: 12.6 µM [falling, partial curve]

CC(=O)N1CCN(c2ccc(Nc3ncnc4c3oc3ccccc34)cc2)CC1
AC50 [1]: 10 µM [falling, partial curve]

Cc1ccc(CNC(=O)c2nnn(-c3cccc(C)c3)c2N)cc1
AC50 [1]: 5.01 µM [falling, partial curve]

COCCNC(=O)Cn1nc(-c2ccccc2)c2ccccc2c1=O
AC50 [1]: 6.31 µM [falling, single point]

COc1cc(NC(=O)CN2C(=O)CCc3cc(Br)ccc32)cc(OC)c1OC
AC50 [1]: 20 µM [falling, partial curve]

Cc1cccc(-c2noc(-c3cc(C(C)C)[nH]n3)n2)c1
AC50 [1]: 12.6 µM [falling, partial curve]

CC(=O)N1c2ccccc2C(=O)C1N1CCN(c2cccc(Cl)c2)CC1 (configuration not stated)
AC50 [1]: 39.8 µM [falling, partial curve]

Cc1cc2cc(CN(Cc3ccc4c(c3)OCO4)Cc3nnnn3C3CCCC3)c(=O)[nH]c2cc1C
AC50 [1]: 15.8 µM [falling, partial curve]

Cc1ccc(Cn2c(CCNC(=O)c3cccc(C)c3)nc3ccccc32)cc1
AC50 [1]: 25.1 µM [falling, single point]

COc1ccc(Cl)cc1NC(=O)CSC1=Nc2ccccc2C2=NC(CCC(=O)NCc3ccco3)C(=O)N12 (configuration not stated)
AC50 [1]: 39.8 µM [falling, single point]

Cc1cccc(NC(=O)CN2C(=O)C3(SCC(=O)N3c3ccccc3)c3ccccc32)c1 (configuration not stated)
AC50 [1]: 31.6 µM [falling, single point]

Cc1ccc(S(=O)(=O)N2CCN(Cc3ccccc3Cl)CC2)cc1
AC50 [1]: 25.1 µM [falling, partial curve, poor fit]

CC(C)Cn1cc(NC(=O)NCc2cccc(Cl)c2)c2ccccc2c1=O
AC50 [1]: 6.31 µM [falling, partial curve]

COc1ccc(NC(=O)c2cccc(N3CCCS3(=O)=O)c2)c(OC)c1
AC50 [1]: 12.6 µM [falling, single point]

O=C(NCCc1ccccc1)c1ccc2c(c1)N(Cc1ccc(F)cc1)C(=O)CS2
AC50 [1]: 31.6 µM [falling, single point]

O=C(NCCC1=CCCCC1)c1ccc2c(c1)sc1nc(-c3ccc(F)cc3)cn12
AC50 [1]: 31.6 µM [falling, single point]

CCN(CC)c1ccc(NC(=O)CN2CCN(CC(=O)Nc3ccc(Cl)cc3)CC2)cc1
AC50 [1]: 15.8 µM [falling, partial curve]

CC1(C)O[C@H]2C[C@@H]3[C@H]4CCC5=CC(=O)CC[C@@]5(C)[C@]4(F)[C@@H](O)C[C@@]3(C)[C@@]2(C(=O)CCl)O1
AC50 [1]: 6.31 µM [rising, full curve] [measured here: IkB-luc green channel]

Cc1ccc(CSc2cn(CC(=O)N3CCCCCC3)c3ccccc23)cc1
AC50 [1]: 10 µM [falling, partial curve]

CCCN(Cc1cc2cccc(C)c2[nH]c1=O)C(=O)c1cccc(Cl)c1
AC50 [1]: 15.8 µM [falling, partial curve]

COc1ccccc1NC(=O)CC(C)n1nc(C)cc1C (configuration not stated)
AC50 [1]: 2 µM [falling, partial curve]

CCOC(=O)c1ccc(NC(=O)CSc2nc3c(c(=O)[nH]2)CN(Cc2ccccc2)CC3)cc1
AC50 [1]: 3.16 µM [falling, full curve]

COc1ccc(-n2nc3c(N4CCC(C(=O)NCc5ccccc5C)CC4)nnc(C)c3c2C)cc1
AC50 [1]: 12.6 µM [falling, single point]

CCOC(=O)N1CCC(NC(=O)c2c(C)nn(-c3cccc(C)c3)c2-n2cccc2)CC1
AC50 [1]: 25.1 µM [falling, partial curve, poor fit]

Cc1nc(SCC(=O)N(C)Cc2ccco2)c2c(C)c(C)sc2n1
AC50 [1]: 25.1 µM [falling, single point]

CN(CC(=O)Nc1ccc(C#N)cc1)Cc1ccc(Cl)cc1
AC50 [1]: 25.1 µM [falling, single point]

Cc1ccc(N(CC(=O)N2CCN(c3ccc(F)cc3)CC2)S(=O)(=O)c2c(C)noc2C)cc1
AC50 [1]: 10 µM [falling, partial curve]

CC(C)(C)C(=O)NCCc1nc2ccccc2n1CCCCOc1ccccc1
AC50 [1]: 25.1 µM [falling, partial curve]

COC(=O)c1ccccc1NS(=O)(=O)c1cc2c(cc1C)N(C)CCO2
AC50 [1]: 15.8 µM [falling, single point]

COc1ccccc1N1CCN(C(=O)CN2C(=O)COc3ccc(S(=O)(=O)N4CCOCC4)cc32)CC1
AC50 [1]: 20 µM [falling, partial curve, poor fit]

CCN(CC)C(=O)c1c(-c2ccccc2)c(-c2ccccc2)nn(CC)c1=O
AC50 [1]: 12.6 µM [falling, partial curve]

COc1ccc(CCC(=O)NC2CC(=O)N(c3ccc(F)cc3)C2)cc1 (configuration not stated)
AC50 [2]: 3.98 µM [rising, full curve, poor fit]
AC50 [3]: 6.31 µM [rising, single point]

COc1ccc(-c2nc3sc(CCNC(=O)c4ccc(Br)o4)c(C)n3n2)cc1
AC50 [1]: 25.1 µM [falling, partial curve]

CCN(Cc1nc(-c2ccc(OC)c(OC)c2)no1)S(=O)(=O)c1ccc(OC)cc1
AC50 [1]: 25.1 µM [falling, single point]

COc1ccc(C(c2sc3ncnn3c2O)N2CCN(c3ccccc3F)CC2)cc1OC (configuration not stated)
AC50 [1]: 10 µM [falling, partial curve]

O=C(CSc1nc(=O)n(Cc2ccccn2)c2c1CCC2)Nc1ccccc1
AC50 [1]: 25.1 µM [falling, partial curve]

CC(C)(C)OC(=O)N1CCC(c2c(C(=O)NC3CCCCC3)cnn2-c2ccc(F)cc2F)CC1
AC50 [1]: 31.6 µM [falling, partial curve]

Cc1ccc(S(=O)(=O)C(CNS(=O)(=O)c2cc(F)ccc2F)c2cccs2)cc1 (configuration not stated)
AC50 [1]: 0.316 µM [falling, full curve, poor fit]

O=C1CN(C(=O)c2ccc(S(=O)(=O)N3CCCC3)cc2)C(c2ccccc2)c2cc(F)ccc2N1 (configuration not stated)
AC50 [1]: 0.794 µM [falling, full curve]

Cc1ccccc1-c1noc(-c2ccccc2OCC(=O)Nc2cccc([N+](=O)[O-])c2)n1
AC50 [1]: 39.8 µM [falling, single point]

Cc1nc(-c2ccc(F)cc2)sc1CCNC(=O)Cc1ccc(F)cc1
AC50 [1]: 10 µM [falling, partial curve]

CCn1cc2nc(SCc3ccccc3Cl)n(Cc3ccc(OC)cc3)c(=O)c2n1
AC50 [1]: 10 µM [falling, partial curve]

COc1ccc(-c2c(C)c3ccc(O)c(CN4CCC(C)CC4)c3oc2=O)cc1OC
AC50 [1]: 25.1 µM [falling, partial curve, poor fit]
